# Data as given in the supplement of paper PMC4604168 (melanoma cell lines).
# The list shows a part of the results. Many values rest on one well or one pass, so single values are uncertain.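 The apoptosis fraction was the count of cleaved-PARP antibody-stained nuclei relative to all DNA-stained nuclei, imaged in 1,536-well plates. Screening doses were set so most cells survived, and baseline and induced cleaved-PARP levels vary greatly across cell lines.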
# Experiments:
# Assay in all cases: cleaved PARP positive nuclei fraction relative to DMSO control; melanoma cells; higher = more apoptosis
# Settings in all cases: library dose: low library concentration; 72 h
# [1] = system: 501Mel
# [2] = system: A101D
# [3] = system: A2058
# [4] = system: C32
# [5] = system: CBRC008 (line from a melanoma biopsy)
# [6] = system: CBRC014 (line from a melanoma biopsy)
# [7] = system: CBRC016 (line from a melanoma biopsy)
# [8] = system: CBRC017 (line from a melanoma biopsy)
# [9] = system: A375
# [10] = system: CBRC013 (line from a melanoma biopsy)
SMILES,cleaved PARP positive nuclei fraction [1] [%],cleaved PARP positive nuclei fraction [2] [%],cleaved PARP positive nuclei fraction [3] [%],cleaved PARP positive nuclei fraction [4] [%],cleaved PARP positive nuclei fraction [5] [%],cleaved PARP positive nuclei fraction [6] [%],cleaved PARP positive nuclei fraction [7] [%],cleaved PARP positive nuclei fraction [8] [%],cleaved PARP positive nuclei fraction [9] [%],cleaved PARP positive nuclei fraction [10] [%]
"Cc1ccc(Nc2nccc(N(C)c3ccc4c(C)n(C)nc4c3)n2)cc1S(N)(=O)=O [Pazopanib] + C/C(O)=C(\C#N)C(=O)Nc1cc(Br)ccc1Br [LFM-A13] (first compound 0.4 µM, partner dose 2 µM)",60.1,39.1,40.6,112,22.2,49.4,38.5,80.8,,
"C[C@@H](Oc1cc(-c2cnn(C3CCNCC3)c2)cnc1N)c1c(Cl)ccc(F)c1Cl [Crizotinib] + C/C(O)=C(\C#N)C(=O)Nc1cc(Br)ccc1Br [LFM-A13] (first compound 0.2 µM, partner dose 2 µM)",76.8,47,84.2,39.3,114,103,47,81.2,,
"N.N.[Cl][Pt][Cl] [cisplatin] + CC(C)CCN1c2nc(Nc3cc(F)c(O)c(F)c3)ncc2N(C)C(=O)C1C [BID1870] (first compound 1.6 µM, partner dose 0.2 µM)",136,28.5,190,38.5,247,118,215,237,,
"O=c1[nH]nc(Sc2ncc([N+](=O)[O-])s2)n1-c1ccc2c(c1)OCCO2 + C/C(O)=C(\C#N)C(=O)Nc1cc(Br)ccc1Br [LFM-A13] (first compound 0.2 µM, partner dose 2 µM)",124,8.98,311,79.3,48,106,36.6,97.6,,
"C=CCNC1=C2C[C@@H](C)C[C@H](OC)[C@H](O)[C@@H](C)/C=C(\C)[C@H](OC(N)=O)[C@@H](OC)/C=C\C=C(/C)C(=O)NC(=CC1=O)C2=O [Tanespimycin] + C/C(O)=C(\C#N)C(=O)Nc1cc(Br)ccc1Br [LFM-A13] (first compound 0.002 µM, partner dose 2 µM)",60.5,30.6,54.8,120,100,90.3,69.5,79.8,,
"N.N.[Cl][Pt][Cl] [cisplatin] + C=CCn1c(=O)c2cnc(Nc3ccc(N4CCN(C)CC4)cc3)nc2n1-c1cccc(C(C)(C)O)n1 [MK1775] (first compound 1.6 µM, partner dose 0.02 µM)",,266,83.4,176,222,116,90.9,90.6,85.8,68.2
"CS(=O)(=O)CCNCc1ccc(-c2ccc3ncnc(Nc4ccc(OCc5cccc(F)c5)c(Cl)c4)c3c2)o1 [lapatinib] + C/C(O)=C(\C#N)C(=O)Nc1cc(Br)ccc1Br [LFM-A13] (first compound 0.8 µM, partner dose 2 µM)",124,46.1,128,80.5,211,120,64.4,123,,
"Cc1cc(Nc2cc(N3CCN(C)CC3)nc(/C=C/c3ccccc3)n2)n[nH]1 + C/C(O)=C(\C#N)C(=O)Nc1cc(Br)ccc1Br [LFM-A13] (first compound 0.04 µM, partner dose 2 µM)",114,42.4,147,96.5,279,111,49.7,93.7,,
"O=C(Nc1cc(C(F)(F)F)cc(C(F)(F)F)c1)c1cc(Cl)ccc1O + O=C(Oc1ccc([N+](=O)[O-])cc1)N1CCC(C(O)(c2ccc3c(c2)OCO3)c2ccc3c(c2)OCO3)CC1 [JZL184] (first compound 0.016 µM, partner dose 1 µM)",71.4,24.6,154,80.3,77.8,86.7,18.2,92.7,,
"N.N.[Cl][Pt][Cl] [cisplatin] + COc1cc2ncnc(Nc3ccc(Oc4ccccc4)cc3)c2cc1OC [SrcI1] (first compound 1.6 µM, partner dose 2 µM)",62.4,24,95.6,76.8,265,111,21.2,116,,
"CNC(=O)c1cc(Oc2ccc(NC(=O)Nc3ccc(Cl)c(C(F)(F)F)c3)cc2)ccn1 [sorafenib] + Cc1cc(SCc2sc(-c3ccc(C(F)(F)F)c(F)c3)nc2C)ccc1OCC(=O)O [GW0742] (first compound 0.4 µM, partner dose 2 µM)",64.6,29.6,49.9,150,55.1,181,71.6,98.1,,
"Nc1ncn([C@H]2C[C@H](O)[C@@H](CO)O2)c(=O)n1 [decitabine] + C/C(O)=C(\C#N)C(=O)Nc1cc(Br)ccc1Br [LFM-A13] (first compound 0.1 µM, partner dose 2 µM)",116,58.3,134,132,54.7,105,113,133,,
"C[C@@H](N)c1ccc(C(=O)Nc2ccnc3[nH]ccc23)cc1 + C/C(O)=C(\C#N)C(=O)Nc1cc(Br)ccc1Br [LFM-A13] (first compound 0.4 µM, partner dose 2 µM)",52.2,22.8,173,74.5,89.7,134,37.6,100,,
"O=C(/C=C/c1cccnc1)NCCCCC1CCN(C(=O)c2ccccc2)CC1 + C/C(O)=C(\C#N)C(=O)Nc1cc(Br)ccc1Br [LFM-A13] (first compound 0.01 µM, partner dose 2 µM)",730,20.5,118,76.3,3540,112,127,705,,
"CC(=O)c1c(C)c2cnc(Nc3ccc(N4CCNCC4)cn3)nc2n(C2CCCC2)c1=O [palbociclib] + Cc1cc(SCc2sc(-c3ccc(C(F)(F)F)c(F)c3)nc2C)ccc1OCC(=O)O [GW0742] (first compound 0.04 µM, partner dose 2 µM)",129,20.4,64.1,46.6,34.6,125,82.8,93.9,,
"C[C@]12O[C@H](C[C@]1(O)CO)n1c3ccccc3c3c4c(c5c6ccccc6n2c5c31)CNC4=O [Lestaurtinib] + Cn1cc(/C=C2\C(=O)Nc3cccnc32)c2ccccc21 [GW441756] (first compound 0.004 µM, partner dose 0.4 µM)",77.7,37.7,108,190,147,92.9,41.3,79.2,,
"CC1(C)CCC(c2ccc(Cl)cc2)=C(CN2CCN(c3ccc(C(=O)NS(=O)(=O)c4ccc(N[C@H](CCN5CCOCC5)CSc5ccccc5)c(S(=O)(=O)C(F)(F)F)c4)cc3)CC2)C1 + C/C(O)=C(\C#N)C(=O)Nc1cc(Br)ccc1Br [LFM-A13] (first compound 0.4 µM, partner dose 2 µM)",432,117,32.4,425,721,639,567,382,,
"C=CCn1c(=O)c2cnc(Nc3ccc(N4CCN(C)CC4)cc3)nc2n1-c1cccc(C(C)(C)O)n1 + C/C(O)=C(\C#N)C(=O)Nc1cc(Br)ccc1Br [LFM-A13] (first compound 0.02 µM, partner dose 2 µM)",,66.3,70.7,96.4,,119,65,96.9,264,48.7
"Nc1ccn([C@@H]2O[C@H](CO)[C@@H](O)C2(F)F)c(=O)n1 [gemcitabine] + Cc1cc(SCc2sc(-c3ccc(C(F)(F)F)c(F)c3)nc2C)ccc1OCC(=O)O [GW0742] (first compound 0.0004 µM, partner dose 2 µM)",,13.1,52.9,42,47.5,179,252,118,,
"Cn1cc(C2=C(c3cn(C4CCN(Cc5ccccn5)CC4)c4ccccc34)C(=O)NC2=O)c2ccccc21 [Enzastaurin] + NC1(c2ccc(-c3nc4ccn5c(=O)[nH]nc5c4cc3-c3ccccc3)cc2)CCC1 [MK2206] (first compound 0.8 µM, partner dose 0.4 µM)",,106,119,85.9,191,116,168,303,57.4,
"CO[C@H]1C[C@@H]2CC[C@@H](C)[C@@](O)(O2)C(=O)C(=O)N2CCCC[C@H]2C(=O)O[C@H]([C@H](C)C[C@@H]2CC[C@@H](OCCO)[C@H](OC)C2)CC(=O)[C@H](C)/C=C(\C)[C@@H](O)[C@@H](OC)C(=O)[C@H](C)C[C@H](C)/C=C/C=C/C=C/1C [everolimus] + O=C(Oc1ccc([N+](=O)[O-])cc1)N1CCC(C(O)(c2ccc3c(c2)OCO3)c2ccc3c(c2)OCO3)CC1 [JZL184] (first compound 0.02 µM, partner dose 1 µM)",,41.3,311,190,125,83.6,53.1,263,,
"C[As](C)SC[C@H](NC(=O)CC[C@H](N)C(=O)O)C(=O)NCC(=O)O [Darinaparsin] + COc1cc(N2CCC(N3CCN(C)CC3)CC2)ccc1Nc1ncc(Cl)c(Nc2ccccc2S(=O)(=O)C(C)C)n1 [NVP-TAE684] (first compound 0.4 µM, partner dose 0.08 µM)",,150,203,114,,97.9,120,77.6,162,56.1
"N.N.[Cl][Pt][Cl] [cisplatin] + CCN(CC)CCCCNc1ncc2cc(-c3cc(OC)cc(OC)c3)c(NC(=O)NC(C)(C)C)nc2n1 [PD173074] (first compound 1.6 µM, partner dose 0.1 µM)",,7.21,76,84.2,325,124,62.1,93.6,,
"C[As](C)SC[C@H](NC(=O)CC[C@H](N)C(=O)O)C(=O)NCC(=O)O [Darinaparsin] + COc1ccc(Cl)c(Nc2nc3ccccc3nc2NS(=O)(=O)c2cccc(NC(=O)C(C)(C)N)c2)c1 [XL147] (first compound 0.4 µM, partner dose 0.8 µM)",,335,90.4,74,101,137,123,120,158,

# 6 entries from above, reformatted:
SMILES	cleaved PARP positive nuclei fraction [1] [%]	cleaved PARP positive nuclei fraction [2] [%]	cleaved PARP positive nuclei fraction [3] [%]	cleaved PARP positive nuclei fraction [4] [%]	cleaved PARP positive nuclei fraction [5] [%]	cleaved PARP positive nuclei fraction [6] [%]	cleaved PARP positive nuclei fraction [7] [%]	cleaved PARP positive nuclei fraction [8] [%]	cleaved PARP positive nuclei fraction [9] [%]	cleaved PARP positive nuclei fraction [10] [%]
C=CCNC1=C2C[C@@H](C)C[C@H](OC)[C@H](O)[C@@H](C)/C=C(\C)[C@H](OC(N)=O)[C@@H](OC)/C=C\C=C(/C)C(=O)NC(=CC1=O)C2=O [Tanespimycin] + C/C(O)=C(\C#N)C(=O)Nc1cc(Br)ccc1Br [LFM-A13] (first compound 0.002 µM, partner dose 2 µM)	60.5	30.6	54.8	120	100	90.3	69.5	79.8		
N.N.[Cl][Pt][Cl] [cisplatin] + C=CCn1c(=O)c2cnc(Nc3ccc(N4CCN(C)CC4)cc3)nc2n1-c1cccc(C(C)(C)O)n1 [MK1775] (first compound 1.6 µM, partner dose 0.02 µM)		266	83.4	176	222	116	90.9	90.6	85.8	68.2
CS(=O)(=O)CCNCc1ccc(-c2ccc3ncnc(Nc4ccc(OCc5cccc(F)c5)c(Cl)c4)c3c2)o1 [lapatinib] + C/C(O)=C(\C#N)C(=O)Nc1cc(Br)ccc1Br [LFM-A13] (first compound 0.8 µM, partner dose 2 µM)	124	46.1	128	80.5	211	120	64.4	123		
Cc1cc(Nc2cc(N3CCN(C)CC3)nc(/C=C/c3ccccc3)n2)n[nH]1 + C/C(O)=C(\C#N)C(=O)Nc1cc(Br)ccc1Br [LFM-A13] (first compound 0.04 µM, partner dose 2 µM)	114	42.4	147	96.5	279	111	49.7	93.7		
O=C(Nc1cc(C(F)(F)F)cc(C(F)(F)F)c1)c1cc(Cl)ccc1O + O=C(Oc1ccc([N+](=O)[O-])cc1)N1CCC(C(O)(c2ccc3c(c2)OCO3)c2ccc3c(c2)OCO3)CC1 [JZL184] (first compound 0.016 µM, partner dose 1 µM)	71.4	24.6	154	80.3	77.8	86.7	18.2	92.7		
N.N.[Cl][Pt][Cl] [cisplatin] + COc1cc2ncnc(Nc3ccc(Oc4ccccc4)cc3)c2cc1OC [SrcI1] (first compound 1.6 µM, partner dose 2 µM)	62.4	24	95.6	76.8	265	111	21.2	116		
